Source: PubChem BioAssay AID1224830 (NIAID, 2016)
Assay: 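Host factors that control LPS-induced TNF expression in human macrophages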 (primary screen). System: human THP-1 monocytic leukaemia cells, TNF dual-luciferase reporter clone, PMA-differentiated to macrophage-like cells. Reagents: siRNA pool against human genes, 50 nM. Time to read-out: LPS for 4 h, given about 3 days after siRNA transfection. Conditions: bacterial LPS (TLR4 ligand), 10 ng/ml. Measurement: 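Ratio of firefly to renilla light, scaled to the plate median and expressed as a robust z-score per replicate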. Reading the numbers: TNF reporter robust z-score: higher = stronger TNF reporter response to LPS. Hit rule: 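a well is active when its z-score exceeds 2.8 or falls below -1.5; control wells carry no call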.
Here is one part, drawn at random, of about 18,000 deposited reagents. In the full data, about 2,900 (16%) got an active call. 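Calls are made per well; low scores hint the gene aids the LPS response, high scores that it dampens it.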 A number with no mark means an inactive call. Repeated entries: four replicate wells of each siRNA pool. Reagent sequences are not shown.

TTC27 showed TNF reporter robust z-score 0.
Against TTC27, the entry reads TNF reporter robust z-score -0.22.
TTC27 showed TNF reporter robust z-score 0.62.
TTC27 showed TNF reporter robust z-score 1.15.
C1orf74 gave TNF reporter robust z-score 0.01.
Knock-down of C1orf74 came out at: TNF reporter robust z-score -0.54.
With knock-down of C1orf74, the screen gave TNF reporter robust z-score -0.86.
Silencing of C1orf74 came out at: TNF reporter robust z-score -0.49.
With knock-down of EIF4EBP2, the screen gave TNF reporter robust z-score -0.41.
After knock-down of EIF4EBP2, the record shows TNF reporter robust z-score -0.6.
With knock-down of EIF4EBP2, the screen gave TNF reporter robust z-score -0.84.
With knock-down of EIF4EBP2, the screen gave TNF reporter robust z-score 0.33.
Knock-down of CDCA2 resulted in: TNF reporter robust z-score 0.
Against CDCA2, the values are TNF reporter robust z-score -0.27.
CDCA2 showed TNF reporter robust z-score -1.26.
Against CDCA2 the deposit lists TNF reporter robust z-score -0.62.
Knock-down of PTPRE resulted in: TNF reporter robust z-score 1.52.
With knock-down of PTPRE, the screen gave TNF reporter robust z-score 3.56 (active).
Knock-down of PTPRE came out at: TNF reporter robust z-score 1.41.
After knock-down of PTPRE, the record shows TNF reporter robust z-score 3.53 (active).
For NPFFR1 the deposit lists TNF reporter robust z-score 0.37.
For NPFFR1, the values are TNF reporter robust z-score 1.73.
NPFFR1 scored TNF reporter robust z-score 0.19.
NPFFR1 gave TNF reporter robust z-score 1.
ZNF185 gave TNF reporter robust z-score 1.55.
After knock-down of ZNF185 the results were TNF reporter robust z-score 0.44.
Depletion of ZNF185 came out at: TNF reporter robust z-score -0.18.
After knock-down of ZNF185 the results were TNF reporter robust z-score -1.19.
Against ALDH1A1 the deposit lists TNF reporter robust z-score -0.78.
For ALDH1A1 the deposit lists TNF reporter robust z-score -0.75.
ALDH1A1 scored TNF reporter robust z-score 0.75.
For ALDH1A1, the values are TNF reporter robust z-score 0.86.
For QTMAN, the entry reads TNF reporter robust z-score 0.26.
After knock-down of QTMAN, the screen gave TNF reporter robust z-score 0.22.
QTMAN scored TNF reporter robust z-score 0.07.
TAFA4 scored TNF reporter robust z-score 0.61.
With knock-down of TAFA4 the results were TNF reporter robust z-score 0.4.
Depletion of TAFA4 came out at: TNF reporter robust z-score -0.22.
Against TAFA4, the entry reads TNF reporter robust z-score -0.11.
POP1 scored TNF reporter robust z-score -1.32.
POP1 gave TNF reporter robust z-score -0.49.
Knock-down of POP1 came out at: TNF reporter robust z-score 0.55.
Depletion of POP1 resulted in: TNF reporter robust z-score 0.95.
Depletion of FABP4 resulted in: TNF reporter robust z-score 1.28.
With knock-down of FABP4, the record shows TNF reporter robust z-score -0.38.
With knock-down of FABP4 the results were TNF reporter robust z-score 0.07.
Knock-down of FABP4 resulted in: TNF reporter robust z-score -0.06.

Already shown: an excerpt of the list.
POP1: TNF reporter robust z-score = 0.55
POP1: TNF reporter robust z-score = 0.95
FABP4: TNF reporter robust z-score = 1.28
FABP4: TNF reporter robust z-score = -0.38
FABP4: TNF reporter robust z-score = 0.07
FABP4: TNF reporter robust z-score = -0.06
